Drawing on PubChem BioAssay (NCATS), this text covers AC50 for 22 compounds.

Some of the results follow. These are further read-outs of the screen, such as a control signal, another cell line or another target. No call is given for them. The list favours compounds with an active or inconclusive main result. Potencies come from curve fits of mixed quality, noted in brackets.

A short description of the test: S16 Schwann cell PMP22 intronic element beta-lactamase assay (AID 624044). To be noted: S16 rat Schwann cells, PMP22 element beta-lactamase FRET, 24 h; measured here: 460 nm blue channel. The method, boiled down: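 Beta-lactamase reporter under a PMP22 intronic regulatory element in stable S16 rat Schwann cells; 24 h compound exposure. 460 nm blue signal normalized between DMSO (0%) and potassium clavulanate, with 535 nm FRET tracking viability; curves classed by r2 and response.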
With `CCCCOc1cc(C(=O)NCCN(CC)CC)c2ccccc2n1`, the AC50 (commonly the concentration giving half of the maximal activity seen) is 0.239 µM [falling, full curve, poor fit].

`CCN1/C(=C/C=C/C=C/c2sc3ccccc3[n+]2CC)Sc2ccccc21`: the AC50 is 7.94 µM [falling, full curve].

Consider `CN1CCN(C2=Nc3ccccc3Sc3ccc(Cl)cc32)CC1`, for which the AC50 is 1.99 µM [falling, partial curve, poor fit].

As to `C#C[C@]1(O)CCC2C3CCC4=CC(=O)CCC4C3CC[C@@]21C` (some centres not stated), the AC50 is 0.282 µM [falling, full curve, poor fit].

For the compound `CN(C(=O)CN(CCO)CC(=O)N(C)C(C)(C)Cc1ccccc1)C(C)(C)Cc1ccccc1`, the AC50 was 2.39 µM [rising, full curve, poor fit].

Regarding `CC[C@H](C)[C@H]1O[C@]2(CC[C@@H]1C)C[C@@H]1C[C@@H](C/C=C(\C)[C@H](O[C@@H]3C[C@H](OC)[C@H](O[C@@H]4C[C@H](OC)[C@@H](O)[C@H](C)O4)[C@H](C)O3)[C@@H](C)/C=C/C=C3\CO[C@@H]4[C@H](O)C(C)=C[C@@H](C(=O)O1)[C@]34O)O2`, the AC50 is 19.9 µM [falling, partial curve].

Turning to `CC(=O)Nc1ccc(NC(=S)NC(=O)c2ccc(C(C)(C)C)cc2)cc1`, the AC50 is 5.62 µM [falling, full curve].

For the compound `COc1nc(N)nc2c1ncn2[C@@H]1O[C@H](CO)[C@@H](O)[C@@H]1O`, the AC50 is 3.98 µM [falling, partial curve, poor fit].

For the compound `Cc1cncc(C(=O)O)[n+]1[O-]`, the AC50 was 0.0999 µM [falling, full curve, poor fit].

For the compound `Cc1ccccc1N1C(=O)c2cc(N)ccc2N/C1=C\F`, the AC50 was 19.9 µM [falling, single point].

With `C[N+]12CCC(CC1)[C@@H](OC(=O)C(O)(c1ccccc1)c1ccccc1)C2`, the AC50 is 4.77 µM [falling, full curve, poor fit].

In the case of `C[C@@]12C=CC(=O)C=C1CCC1C3CC(O)[C@@](O)(C(=O)CO)[C@]3(C)CC(O)[C@]12F` (some centres not stated), the AC50 is 11.2 µM [falling, partial curve, poor fit].

Take `CC(C)C[C@@H](NC(=O)[C@@H](Cc1ccccc1)NC(=O)c1cnccn1)B(O)O`: the concentration at half-maximal activity (AC50) was 0.0199 µM [falling, full curve].

For `CCC(=O)O[C@@H](OP(=O)(CCCCc1ccccc1)CC(=O)N1C[C@H](C2CCCCC2)C[C@H]1C(=O)O)C(C)C` (some centres not stated), the half-maximal activity concentration (AC50) is 9.99 µM [rising, single point].

For `C=CC(C)(O)CC/C=C(\C)CCC=C(C)C` (configuration not stated), the concentration at half-maximal activity (AC50) was 7.07 µM [falling, full curve].

Take `C[C@@H]1CC2[C@@H]3C[C@H](F)C4=CC(=O)C(Cl)=C[C@]4(C)[C@@]3(F)[C@H](O)C[C@]2(C)[C@@]1(O)C(=O)CO` (some centres not stated): the AC50 is 0.224 µM [falling, full curve, poor fit].

Take `CCNC(=O)[C@@H]1CCCN1C(=O)[C@H](CCCN=C(N)N)NC(=O)[C@H](CC(C)C)NC(=O)[C@@H](Cc1c[nH]c2ccccc12)NC(=O)[C@H](Cc1ccc(O)cc1)NC(=O)[C@H](CO)NC(=O)[C@H](Cc1c[nH]c2ccccc12)NC(=O)[C@H](Cc1cnc[nH]1)NC(=O)[C@@H]1CCC(=O)N1`: the concentration at half-maximal activity (AC50) was 17.8 µM [falling, partial curve].

On to `C[C@@H]1CC2C3CCC4=CC(=O)C=C[C@]4(C)[C@@]3(F)[C@@H](O)C[C@]2(C)[C@@]1(O)C(=O)COC(=O)c1cccc(S(=O)(=O)O)c1` (some centres not stated), for which the AC50 is 14.1 µM [falling, partial curve, poor fit].

For `CCOC(=O)n1ccn(C)c1=S`, the AC50 was 0.00755 µM [falling, full curve, poor fit].

For the compound `CO[C@H](C(=O)[C@@H](O)[C@@H](C)O)C1Cc2cc3cc(O[C@H]4C[C@@H](O[C@H]5C[C@@H](O)[C@H](O)[C@@H](C)O5)[C@@H](O)[C@@H](C)O4)c(C)c(O)c3c(O)c2C(=O)[C@H]1O[C@H]1C[C@@H](O[C@H]2C[C@@H](O[C@H]3C[C@](C)(O)[C@H](O)[C@@H](C)O3)[C@H](O)[C@@H](C)O2)[C@H](O)[C@@H](C)O1` (some centres not stated), the half-maximal activity concentration (AC50) was 0.446 µM [falling, full curve].

Turning to `O=C1c2cccc3c2[C@@H](CCC3)CN1[C@@H]1CN2CCC1CC2`, the AC50 was 8.91 µM [falling, partial curve].

With `CC(=O)[C@H]1CC[C@H]2[C@@H]3C=CC4=CC(=O)CC[C@@]4(C)[C@H]3CC[C@]12C`, the half-maximal activity concentration (AC50) is 0.107 µM [falling, full curve, poor fit].
